Source: US20230052256A1
Results are given in words; binding and its absence hold for the method and conditions named. Some binding calls cover weakened binding; strength is not graded here.

Sequences of proteins named here, by UniProt entry; tags and fusion partners are left off. A change or cut given only in a name is not applied to a line headed by its entry. A line that says so, or that is headed by a name, gives the form on record, which may keep a tag or linker.
recombinant human FGFR1b-Fc (R&D Systems) (P11362, form named): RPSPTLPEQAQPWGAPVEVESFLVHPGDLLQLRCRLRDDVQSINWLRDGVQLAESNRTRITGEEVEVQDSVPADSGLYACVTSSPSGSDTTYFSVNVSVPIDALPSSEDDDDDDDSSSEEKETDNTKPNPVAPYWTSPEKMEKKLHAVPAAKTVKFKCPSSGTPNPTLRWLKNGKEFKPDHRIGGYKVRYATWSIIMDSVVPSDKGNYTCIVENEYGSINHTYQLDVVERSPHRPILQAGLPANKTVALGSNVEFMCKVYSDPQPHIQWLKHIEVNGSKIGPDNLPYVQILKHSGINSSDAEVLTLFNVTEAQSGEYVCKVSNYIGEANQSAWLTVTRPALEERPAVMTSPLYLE

Legend:
[1] = biological target: recombinant human FGFR1b-Fc (R&D Systems) (human) (UniProt P11362); assay: ELISA on HuFGFR1b
[2] = biological target: recombinant human FGFR1b-Fc (R&D Systems) (human) (UniProt P11362); assay: ELISA on FGFR-Fc proteins

- binding [1]: binds
- binding [2]: binds
B1: Ab 26 (mouse monoclonal antibody) (antibody, V domains shown)
VH: DVHLQESGPGLVKPSQSLSLTCSVTGYSITSGYYWNWIRQFPGNKLEWMGYITYDGSNNYNPSLKNRLSITRDTSKNQFFLQLSSLTTEDTATYFCARVYYYGSGNFDVWGTGTTVTVSS
VL: SIVMTQTPKILLVSAGDRVTITCKASQSVSNDVAWYQQKPGQSPKLLIYYASNRYTGVPDRFTGSGYGTDFTFTISTVQAEDLAVYFCHQDHTSPFTFGSGTKLEIK
